These results are taken from publication PMC9642995.

Amino acid sequences for entries named in this document (tags omitted).
UniProt P23242: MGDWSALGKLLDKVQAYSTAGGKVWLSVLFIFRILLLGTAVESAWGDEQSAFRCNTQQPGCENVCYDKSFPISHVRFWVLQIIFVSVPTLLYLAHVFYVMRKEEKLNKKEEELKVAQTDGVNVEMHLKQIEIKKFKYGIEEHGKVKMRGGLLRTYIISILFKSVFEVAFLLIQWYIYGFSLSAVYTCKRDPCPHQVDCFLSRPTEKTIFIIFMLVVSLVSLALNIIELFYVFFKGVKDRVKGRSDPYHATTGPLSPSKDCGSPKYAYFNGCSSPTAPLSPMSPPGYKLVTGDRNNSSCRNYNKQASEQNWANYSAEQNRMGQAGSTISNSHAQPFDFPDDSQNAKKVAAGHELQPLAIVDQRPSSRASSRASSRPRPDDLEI

The target of experiment [1] is T1, ATP5J2-enhanced yellow fluorescent protein (EYFP) (UniProt P56135).
T1 sequence: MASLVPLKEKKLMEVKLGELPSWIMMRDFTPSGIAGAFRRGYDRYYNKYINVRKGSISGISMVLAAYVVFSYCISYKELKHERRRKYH
In words: FRET or BRET; Cx43-CFP (donor) and ATP5J2-EYFP (acceptor) co-transfected into MLO-Y4 cells, 48 hr, confocal microscopy, FRET index by the ImageJ FRET analysis plugin.

The target in another experiment is T2, ATP5J2-GFP (UniProt P56135).
T2 sequence: T1 sequence
Description: co-IP; GFP or ATP5J2-GFP transfected MLO-Y4 cells; immunoprecipitation with anti-GFP antibody, blot with anti-Cx43 (1:300).

Results are given in words; binding and its absence hold for the method and conditions named. Binding seen in cells or lysates may run through a third protein. Some binding calls cover weakened binding; strength is not graded here. Where a sequence is shown, tags or fusion partners need not be part of it.

With “Cx43-cyan fluorescent protein (CFP) (from UniProt P23242 1-382)”, the binding result in experiment [1] is recorded as “binds”. For the substance “Connexin 43 (Cx43) (from UniProt P23242 1-382)”, the binding result with ATP5J2-GFP is “binds”.
